Reference: paper PMC6218470
No constants are given. Whether binding was seen depends on the method and setting. In cells and extracts the contact can be indirect. Some results given as binding are weak or reduced against the parent protein; the word gives no strength.

Chains of the proteins cited; added tags and fusions are not shown.
UniProt P63074: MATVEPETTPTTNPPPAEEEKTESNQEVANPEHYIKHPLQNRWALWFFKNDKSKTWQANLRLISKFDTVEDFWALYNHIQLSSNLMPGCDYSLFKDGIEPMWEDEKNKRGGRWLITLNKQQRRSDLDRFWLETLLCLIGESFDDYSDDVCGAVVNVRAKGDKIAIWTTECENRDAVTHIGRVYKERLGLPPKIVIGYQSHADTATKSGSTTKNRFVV
UniProt Q8N122: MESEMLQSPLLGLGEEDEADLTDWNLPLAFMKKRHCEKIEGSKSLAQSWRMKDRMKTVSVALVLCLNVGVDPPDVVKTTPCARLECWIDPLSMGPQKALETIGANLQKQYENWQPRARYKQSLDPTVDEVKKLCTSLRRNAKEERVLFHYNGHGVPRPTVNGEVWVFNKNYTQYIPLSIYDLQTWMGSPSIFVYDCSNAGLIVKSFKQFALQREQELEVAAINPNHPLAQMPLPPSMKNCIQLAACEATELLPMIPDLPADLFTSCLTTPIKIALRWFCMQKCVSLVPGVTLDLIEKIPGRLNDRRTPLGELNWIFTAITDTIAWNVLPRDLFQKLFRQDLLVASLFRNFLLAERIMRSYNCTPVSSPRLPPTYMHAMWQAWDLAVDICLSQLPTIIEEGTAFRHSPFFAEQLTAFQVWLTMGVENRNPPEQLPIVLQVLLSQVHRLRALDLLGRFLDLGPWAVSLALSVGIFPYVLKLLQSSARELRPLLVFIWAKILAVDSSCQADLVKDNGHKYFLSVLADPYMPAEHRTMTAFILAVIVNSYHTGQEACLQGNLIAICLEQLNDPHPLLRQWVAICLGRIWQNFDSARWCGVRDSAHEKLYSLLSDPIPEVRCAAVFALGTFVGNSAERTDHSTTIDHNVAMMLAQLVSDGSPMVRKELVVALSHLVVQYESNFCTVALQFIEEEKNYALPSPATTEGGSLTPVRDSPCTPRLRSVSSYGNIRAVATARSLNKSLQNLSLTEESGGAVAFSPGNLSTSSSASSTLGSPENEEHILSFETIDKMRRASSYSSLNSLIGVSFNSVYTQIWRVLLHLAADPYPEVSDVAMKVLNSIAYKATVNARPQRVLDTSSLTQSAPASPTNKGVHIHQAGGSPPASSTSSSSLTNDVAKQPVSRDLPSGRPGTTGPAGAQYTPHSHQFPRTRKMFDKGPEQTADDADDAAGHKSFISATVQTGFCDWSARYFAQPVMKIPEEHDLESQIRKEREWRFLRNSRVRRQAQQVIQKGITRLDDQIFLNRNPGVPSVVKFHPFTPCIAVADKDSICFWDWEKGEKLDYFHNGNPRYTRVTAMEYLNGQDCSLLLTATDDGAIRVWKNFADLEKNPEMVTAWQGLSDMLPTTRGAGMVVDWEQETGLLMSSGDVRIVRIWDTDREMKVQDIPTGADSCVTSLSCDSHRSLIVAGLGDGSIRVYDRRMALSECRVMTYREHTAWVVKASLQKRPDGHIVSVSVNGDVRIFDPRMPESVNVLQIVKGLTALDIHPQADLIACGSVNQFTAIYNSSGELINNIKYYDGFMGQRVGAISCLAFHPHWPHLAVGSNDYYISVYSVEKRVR
UniProt Q62622: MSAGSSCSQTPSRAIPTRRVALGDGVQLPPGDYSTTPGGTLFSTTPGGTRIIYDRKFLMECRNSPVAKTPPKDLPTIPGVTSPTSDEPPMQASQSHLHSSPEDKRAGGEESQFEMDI
UniProt P23443: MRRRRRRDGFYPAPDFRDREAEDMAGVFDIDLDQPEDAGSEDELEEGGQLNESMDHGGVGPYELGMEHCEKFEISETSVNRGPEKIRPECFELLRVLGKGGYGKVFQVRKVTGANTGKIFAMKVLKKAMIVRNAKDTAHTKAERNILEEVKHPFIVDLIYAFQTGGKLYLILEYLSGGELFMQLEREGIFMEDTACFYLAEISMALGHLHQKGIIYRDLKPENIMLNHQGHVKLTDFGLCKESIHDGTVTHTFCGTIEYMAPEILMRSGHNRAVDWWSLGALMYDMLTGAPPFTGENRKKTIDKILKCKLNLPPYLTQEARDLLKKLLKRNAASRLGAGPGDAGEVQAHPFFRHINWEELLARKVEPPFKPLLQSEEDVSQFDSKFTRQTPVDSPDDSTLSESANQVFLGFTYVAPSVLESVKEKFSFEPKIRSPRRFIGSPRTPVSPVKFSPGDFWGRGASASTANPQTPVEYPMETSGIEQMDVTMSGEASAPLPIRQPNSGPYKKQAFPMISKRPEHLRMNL

Columns and labels:
[1] = target: eIF4E (endogenous, GH3 cells) (rat (endogenous in GH3)) (UniProt P63074); assay: pull-down; eIF4E precipitated with cap analogue m7GTP Sepharose beads from whole-cell lysates of GH3 cells transfected with the indicated dose of H19; immunoblot
HA-Raptor [2] = target: HA-Raptor (UniProt Q8N122); assay: co-IP; HEK293 cells transfected with tagged constructs, with H19 expression; immunoblot
HA-Raptor [3] = target: HA-Raptor (UniProt Q8N122); assay: co-IP; GH3 cells transfected with tagged constructs, with increasing H19 expression; anti-Flag or anti-HA agarose beads, 3-4 h at 4 °C; RNase treatment group as negative control; immunoblot

Row | binding [1] | binding (HA-Raptor [2]) | binding (HA-Raptor [3]) | Substance
1 | binds |  |  | 4E-BP1 (endogenous, GH3 cells) (from UniProt Q62622 1-117)
2 |  | binds | binds | Flag-S6K1 (from UniProt P23443 1-525)
